Results on five molecules are retold here after patent US20190338026A1 (University of Texas, published 2019).

Assay [1] has as its target T1, human LAIR1 extracellular domain (ECD) protein with 6 HIS tag at the C-terminus (human) (UniProt Q6GTX8).
T1 sequence: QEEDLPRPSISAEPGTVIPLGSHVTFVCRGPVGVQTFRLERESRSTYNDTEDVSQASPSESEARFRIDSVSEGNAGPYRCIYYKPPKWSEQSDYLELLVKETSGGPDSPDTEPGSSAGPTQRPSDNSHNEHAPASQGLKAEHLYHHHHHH
Kind of assay: ELISA, LAIR1 ECD coated.

In assay [2] the target is T1, human LAIR1 extracellular domain (ECD) protein with 6 HIS tag at the C-terminus (human). Kind of assay: ELISA.
Assay [3] concerns the target T2, recombinant LAIR1 (human, UniProt Q6GTX8 22-165, limits assumed).
T2 construct: also called LAIR1 (Octet analyte)
T2 chain: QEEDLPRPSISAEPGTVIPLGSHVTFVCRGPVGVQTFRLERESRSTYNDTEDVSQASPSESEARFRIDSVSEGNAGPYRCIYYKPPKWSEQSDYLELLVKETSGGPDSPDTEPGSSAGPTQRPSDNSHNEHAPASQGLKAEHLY
Kind of assay: Octet, antibody on protein A sensor, recombinant LAIR1 in solution. For orientation: BLI is a label-free optical method that tracks binding on a fibre tip over time.

These are yes or no findings as the source states them, for the method shown. Some results given as binding are weak or reduced against the parent protein; the word gives no strength. For some assays here: Tags and fused reporters may be left off the sequences shown.

B1: LA-235 (antibody, V domains shown)
VH: SSSVEESEGRLVTPGTPLTLTCTVSGFSLSSYTMGWVRQAPGEGLEWIGTTSNDGSTYYASWAKGRFTISKTSSTTVDLMMTSLTTEDTATYFCVRGTNIRSLWGPGTLVTISS
VL: ELVMTQTPASVEAAVGGTVTIKCQASQSIGSNLAWYQQKPGQPPKLLIYLASALASGVSSRFKGSGSGSDFTLTISDLECADAATYYCQCTYGSSNNNNYGDPFGGGTEVEIK
notes: Rabbit monoclonal IgG; Called an antagonist antibody
Consider B1, for which the binding result in assay [1] and in assay [2] was “binds” each time.

B2: LA-259-2 (antibody, V domains shown)
VH: QSVKESGGRLVTPGTPLTLTCTASGFSLYKYNIQWVRQAPGKGLEYIGASTYAGYTYYASWAKGRVTISRTSTTVDLKMTSPTTEDTATYFCARHIDGDYSGYALWGPGTLVTISS
VL: ELVMTQTPASVSAAVGGTVTIKCQASQSIGTWFAWYQQKPGQSPKLLIYGPSKLASGVPPRFKGSGSGTEFTLTISDLECDDAATYYCQSNGGSISNGWGSFGGGTEVVVK
notes: Rabbit monoclonal IgG
In the case of B2, the binding result in assay [1], in assay [2] and in assay [3] was “binds” each time.

B3: LA-258-2 (antibody, V domains shown)
VH: QSVKESGGDLVKPEGSLTLTCKASGFSFSNSYYMCWVRQAPGKGLEWIACIYTGSTSGTYYASWVNGRFTISKTPSTTVTLQMTSLTVADTATYFCSRKLTNFNGAYLDLWGPGTLVTISS
VL: ELVMTQTPSSVEAAVGGTVTIKCQASQSIYSYLAWYQQKPGQPPKVLIYKASTLASGVPSRFKGSGSGTDFTLTISDLECADAATYYCQANNGGSDNNFGGGTEVEIK
notes: Rabbit monoclonal IgG
B3: the binding result in assay [1], in assay [2] and in assay [3] was “binds” in each case.

B4: LA-258-3 (antibody, V domains shown)
VH: B3 VH
VL: ELVLTQTPASVEAAVGGTVTINCQASQSISNLLAWYQQKPGQPPKVLIYKASTLASGVPSRFKGSGSGTDFTLTISDLECADAATYYCQANNGGSDNNFGGGTEVVVKA
notes: Rabbit monoclonal IgG
Consider B4, for which the binding entry in assay [1], in assay [2] and in assay [3] was “binds” each time.

B5: LA-121 (antibody, V domains shown)
VH: EQSVEESGGRLVTPGTPLTLTCTASGFSLYKYNIQWVRQAPGKGLEYIGASTYAGYTYYASWAIGRVTISRTSTTVDLKMTSPTTEDTATYFCARHIDGDYSGYALWGPGTLVTISS
VL: ELDLTQTPASVSAAVGGTVTIKCQASQSIDTWFGWYQQKPGQSPKLLIYGASKLASGVPPRFKGSGSGTEFTLTISDLECADAATYYCQNTYYGVRYLGGAFGGGTEVEIK
notes: Rabbit monoclonal IgG
Turning to B5, the binding entry in assay [1], in assay [2] and in assay [3] was “binds” in each case.
